From the supplement of paper PMC6078165
± gives the standard deviation of the averaged measurements. The reference is the same well before dosing, and untreated signal decays as well.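 Labels refer to human fibroblasts, largely primary: uterine (C12385, HUF), lung (H6013), bone (Hs27A), adrenal (HADF), skin (WS1), plus mammary HMF and breast cancer-associated Hs343T. Cancer lines are basal-like or mesenchymal-like triple-negative breast cancer. The paper counts as hits responses shifting over 3x the replicate standard deviation. The tissue of the other fibroblasts is not given here.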

Test system: MDAMB231
Experiment: relative JC-1 red fluorescence (viability) vs pre-drug, coculture with fibroblast (fraction); higher = more viable cancer cells
Experimental: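 JC-1 labelled TNBC cells cocultured 1:1 (1,500 cells each) with CellTrace Violet stained primary or stromal fibroblasts in 384-well plates in FluoroBrite medium, treated with one of 42 anticancer drugs at 0.1, 1, 10 or 100 uM. JC-1 red fluorescence (mitochondrial integrity in cancer cells only) was read by plate reader every 8 h for 72 h. Values are normalised to each well's pre-drug value. The stock of one drug was tenfold lower, so its dose labels may be too high.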

C=C1C[C@@H]2[C@H](CC[C@]3(C)C(=O)CC[C@@H]23)[C@@]2(C)C=CC(=O)C=C12 [Exemestane]
relative JC-1 red fluorescence
Settings | 8 h | 16 h | 24 h | 32 h | 40 h | 48 h | 56 h | 64 h | 72 h
0.1 µM, coculture fibroblast: C12385 | 0.778 ± 0.014 | 0.711 ± 0.022 | 0.674 ± 0.019 | 0.608 ± 0.025 | 0.551 ± 0.043 | 0.531 ± 0.045 | 0.489 ± 0.051 | 0.483 ± 0.052 | 0.471 ± 0.049
0.1 µM, coculture fibroblast: H6013 | 0.901 ± 0.019 | 0.819 ± 0.04 | 0.754 ± 0.017 | 0.735 ± 0.029 | 0.678 ± 0.03 | 0.655 ± 0.032 | 0.637 ± 0.035 | 0.614 ± 0.04 | 0.571 ± 0.036
0.1 µM, coculture fibroblast: H6019 | 0.811 ± 0.013 | 0.728 ± 0.015 | 0.691 ± 0.05 | 0.659 ± 0.021 | 0.596 ± 0.043 | 0.57 ± 0.043 | 0.521 ± 0.05 | 0.505 ± 0.065 | 0.472 ± 0.06
0.1 µM, coculture fibroblast: H6076 | 0.882 ± 0.015 | 0.7573 ± 0.0049 | 0.678 ± 0.013 | 0.639 ± 0.025 | 0.582 ± 0.031 | 0.541 ± 0.029 | 0.507 ± 0.027 | 0.484 ± 0.02 | 0.47 ± 0.02
0.1 µM, coculture fibroblast: H6231 | 0.931 ± 0.024 | 0.866 ± 0.065 | 0.782 ± 0.1 | 0.733 ± 0.11 | 0.677 ± 0.1 | 0.637 ± 0.099 | 0.59 ± 0.093 | 0.571 ± 0.099 | 0.542 ± 0.098
0.1 µM, coculture fibroblast: HADF | 0.88 ± 0.025 | 0.825 ± 0.033 | 0.749 ± 0.025 | 0.708 ± 0.015 | 0.658 ± 0.033 | 0.604 ± 0.043 | 0.577 ± 0.045 | 0.556 ± 0.045 | 0.501 ± 0.04
0.1 µM, coculture fibroblast: HCFa | 0.901 ± 0.024 | 0.828 ± 0.044 | 0.812 ± 0.043 | 0.796 ± 0.038 | 0.754 ± 0.039 | 0.721 ± 0.036 | 0.684 ± 0.04 | 0.658 ± 0.028 | 0.609 ± 0.033
0.1 µM, coculture fibroblast: HCPF | 0.878 ± 0.041 | 0.788 ± 0.047 | 0.697 ± 0.049 | 0.667 ± 0.042 | 0.604 ± 0.031 | 0.555 ± 0.025 | 0.518 ± 0.02 | 0.49 ± 0.021 | 0.464 ± 0.018
0.1 µM, coculture fibroblast: HHSteC | 0.9069 ± 0.0013 | 0.8424 ± 0.0056 | 0.789 ± 0.017 | 0.744 ± 0.013 | 0.698 ± 0.029 | 0.669 ± 0.026 | 0.623 ± 0.027 | 0.598 ± 0.031 | 0.553 ± 0.035
0.1 µM, coculture fibroblast: HMF | 0.887 ± 0.017 | 0.872 ± 0.15 | 0.771 ± 0.11 | 0.73 ± 0.13 | 0.676 ± 0.098 | 0.624 ± 0.081 | 0.567 ± 0.06 | 0.537 ± 0.042 | 0.506 ± 0.032
0.1 µM, coculture fibroblast: HPFa | 0.933 ± 0.014 | 0.867 ± 0.01 | 0.806 ± 0.024 | 0.756 ± 0.038 | 0.719 ± 0.048 | 0.683 ± 0.06 | 0.632 ± 0.053 | 0.602 ± 0.069 | 0.544 ± 0.067
0.1 µM, coculture fibroblast: HUF | 0.849 ± 0.0087 | 0.758 ± 0.014 | 0.723 ± 0.051 | 0.599 ± 0.044 | 0.526 ± 0.039 | 0.505 ± 0.053 | 0.444 ± 0.047 | 0.442 ± 0.051 | 0.421 ± 0.053
0.1 µM, coculture fibroblast: Hs5 | 0.8646 ± 0.0037 | 0.7667 ± 0.0021 | 0.707 ± 0.015 | 0.659 ± 0.0089 | 0.614 ± 0.012 | 0.567 ± 0.0096 | 0.535 ± 0.0075 | 0.5079 ± 0.0034 | 0.472 ± 0.0089
0.1 µM, coculture fibroblast: Hs27A | 0.8795 ± 0.0081 | 0.816 ± 0.011 | 0.7693 ± 0.0018 | 0.755 ± 0.01 | 0.708 ± 0.021 | 0.655 ± 0.034 | 0.648 ± 0.027 | 0.622 ± 0.02 | 0.565 ± 0.015
0.1 µM, coculture fibroblast: Hs343T | 0.847 ± 0.034 | 0.704 ± 0.029 | 0.644 ± 0.011 | 0.5945 ± 0.0029 | 0.5426 ± 0.005 | 0.497 ± 0.011 | 0.444 ± 0.03 | 0.42 ± 0.04 | 0.389 ± 0.042
0.1 µM, coculture fibroblast: WS1 | 0.7965 ± 0.0051 | 0.714 ± 0.013 | 0.689 ± 0.018 | 0.6466 ± 0.0015 | 0.608 ± 0.013 | 0.5867 ± 0.0011 | 0.54 ± 0.01 | 0.529 ± 0.0072 | 0.511 ± 0.0099
1 µM, coculture fibroblast: C12385 | 0.773 ± 0.013 | 0.691 ± 0.02 | 0.731 ± 0.066 | 0.64 ± 0.026 | 0.576 ± 0.02 | 0.562 ± 0.019 | 0.525 ± 0.036 | 0.541 ± 0.06 | 0.532 ± 0.075
1 µM, coculture fibroblast: H6013 | 0.887 ± 0.03 | 0.8226 ± 0.0032 | 0.7892 ± 0.0031 | 0.7744 ± 0.0024 | 0.734 ± 0.012 | 0.718 ± 0.012 | 0.694 ± 0.023 | 0.674 ± 0.025 | 0.632 ± 0.023
1 µM, coculture fibroblast: H6019 | 0.763 ± 0.023 | 0.68 ± 0.02 | 0.679 ± 0.055 | 0.618 ± 0.042 | 0.563 ± 0.055 | 0.537 ± 0.064 | 0.486 ± 0.079 | 0.465 ± 0.09 | 0.421 ± 0.092
1 µM, coculture fibroblast: H6076 | 0.896 ± 0.047 | 0.83 ± 0.045 | 0.7952 ± 0.0041 | 0.777 ± 0.012 | 0.747 ± 0.021 | 0.718 ± 0.031 | 0.701 ± 0.045 | 0.682 ± 0.06 | 0.666 ± 0.059
1 µM, coculture fibroblast: H6231 | 0.9184 ± 0.0061 | 0.8206 ± 0.004 | 0.748 ± 0.046 | 0.684 ± 0.062 | 0.62 ± 0.081 | 0.581 ± 0.085 | 0.543 ± 0.11 | 0.516 ± 0.11 | 0.484 ± 0.12
1 µM, coculture fibroblast: HADF | 0.885 ± 0.022 | 0.812 ± 0.029 | 0.797 ± 0.034 | 0.774 ± 0.056 | 0.742 ± 0.06 | 0.731 ± 0.078 | 0.69 ± 0.078 | 0.679 ± 0.082 | 0.633 ± 0.079
1 µM, coculture fibroblast: HCFa | 0.896 ± 0.01 | 0.826 ± 0.011 | 0.7967 ± 0.0065 | 0.761 ± 0.017 | 0.719 ± 0.024 | 0.678 ± 0.033 | 0.636 ± 0.032 | 0.6 ± 0.03 | 0.543 ± 0.035
1 µM, coculture fibroblast: HCPF | 0.905 ± 0.011 | 0.822 ± 0.052 | 0.788 ± 0.086 | 0.771 ± 0.11 | 0.717 ± 0.14 | 0.687 ± 0.16 | 0.665 ± 0.19 | 0.634 ± 0.19 | 0.612 ± 0.21
1 µM, coculture fibroblast: HHSteC | 0.917 ± 0.029 | 0.893 ± 0.011 | 0.838 ± 0.0093 | 0.791 ± 0.014 | 0.743 ± 0.0075 | 0.701 ± 0.013 | 0.65 ± 0.013 | 0.624 ± 0.02 | 0.576 ± 0.015
1 µM, coculture fibroblast: HMF | 0.8645 ± 0.0053 | 0.759 ± 0.0077 | 0.693 ± 0.022 | 0.665 ± 0.027 | 0.607 ± 0.031 | 0.566 ± 0.028 | 0.53 ± 0.025 | 0.515 ± 0.021 | 0.489 ± 0.027
1 µM, coculture fibroblast: HPFa | 0.9784 ± 0.0015 | 0.923 ± 0.016 | 0.883 ± 0.019 | 0.838 ± 0.036 | 0.804 ± 0.035 | 0.766 ± 0.029 | 0.713 ± 0.038 | 0.676 ± 0.044 | 0.615 ± 0.047
1 µM, coculture fibroblast: HUF | 0.85 ± 0.0044 | 0.765 ± 0.011 | 0.7415 ± 0.0039 | 0.642 ± 0.0073 | 0.57 ± 0.0085 | 0.5559 ± 0.0054 | 0.495 ± 0.0085 | 0.473 ± 0.011 | 0.45 ± 0.0099
1 µM, coculture fibroblast: Hs5 | 0.903 ± 0.028 | 0.81 ± 0.017 | 0.751 ± 0.011 | 0.71 ± 0.014 | 0.66 ± 0.011 | 0.607 ± 0.0077 | 0.571 ± 0.017 | 0.535 ± 0.019 | 0.505 ± 0.017
1 µM, coculture fibroblast: Hs27A | 0.882 ± 0.015 | 0.817 ± 0.0034 | 0.784 ± 0.011 | 0.7539 ± 0.003 | 0.7045 ± 0.0014 | 0.64902 ± 0.00041 | 0.6354 ± 0.0053 | 0.607 ± 0.01 | 0.544 ± 0.012
1 µM, coculture fibroblast: Hs343T | 0.9058 ± 0.0073 | 0.7813 ± 0.0061 | 0.7346 ± 0.0033 | 0.7023 ± 0.0058 | 0.65 ± 0.012 | 0.598 ± 0.016 | 0.556 ± 0.015 | 0.533 ± 0.0086 | 0.49823 ± 0.00026
1 µM, coculture fibroblast: WS1 | 0.744 ± 0.012 | 0.654 ± 0.023 | 0.603 ± 0.038 | 0.542 ± 0.041 | 0.495 ± 0.039 | 0.457 ± 0.039 | 0.404 ± 0.036 | 0.389 ± 0.031 | 0.366 ± 0.034
